Results are given in words; binding and its absence hold for the method and conditions named. Binding seen in cells or lysates may run through a third protein. Some entries that bind do so weakly or less than the wild type.
Legend:
[1] = biological target: Ehrlichia chaffeensis TRP120 effector (E. chaffeensis (Arkansas strain)) (UniProt Q2GI62); test: co-IP; whole cell lysates of E. chaffeensis-infected THP-1 cells harvested at 24, 48 and 72 hpi (uninfected controls); anti-TRP120 or anti-FBW7 antibody, protein A/G beads; Western immunoblot with anti-FBW7 or anti-TRP120
[2] = biological target: F-BOX and WD domain repeating-containing 7 (FBW7) (human (endogenous in THP-1)) (UniProt Q969H0); test: as above

Chains of the proteins cited; added tags and fusions are not shown. Lines headed by an entry give the natural chain unless they say otherwise; changes in a name come on top.
UniProt Q2GI62: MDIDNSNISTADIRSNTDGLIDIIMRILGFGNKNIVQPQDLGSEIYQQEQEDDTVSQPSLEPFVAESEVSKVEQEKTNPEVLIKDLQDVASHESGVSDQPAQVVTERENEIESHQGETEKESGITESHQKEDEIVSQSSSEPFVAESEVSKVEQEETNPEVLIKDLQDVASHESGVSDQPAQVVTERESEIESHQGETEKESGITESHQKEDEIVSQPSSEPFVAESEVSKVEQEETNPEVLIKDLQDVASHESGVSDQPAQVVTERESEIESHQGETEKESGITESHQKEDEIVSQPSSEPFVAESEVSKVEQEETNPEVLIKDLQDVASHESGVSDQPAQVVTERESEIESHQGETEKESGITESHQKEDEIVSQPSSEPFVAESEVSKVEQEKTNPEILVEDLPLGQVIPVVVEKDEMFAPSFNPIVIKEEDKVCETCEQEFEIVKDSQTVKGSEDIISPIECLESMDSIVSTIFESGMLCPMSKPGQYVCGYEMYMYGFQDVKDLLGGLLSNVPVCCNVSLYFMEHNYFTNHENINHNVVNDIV
UniProt Q969H0: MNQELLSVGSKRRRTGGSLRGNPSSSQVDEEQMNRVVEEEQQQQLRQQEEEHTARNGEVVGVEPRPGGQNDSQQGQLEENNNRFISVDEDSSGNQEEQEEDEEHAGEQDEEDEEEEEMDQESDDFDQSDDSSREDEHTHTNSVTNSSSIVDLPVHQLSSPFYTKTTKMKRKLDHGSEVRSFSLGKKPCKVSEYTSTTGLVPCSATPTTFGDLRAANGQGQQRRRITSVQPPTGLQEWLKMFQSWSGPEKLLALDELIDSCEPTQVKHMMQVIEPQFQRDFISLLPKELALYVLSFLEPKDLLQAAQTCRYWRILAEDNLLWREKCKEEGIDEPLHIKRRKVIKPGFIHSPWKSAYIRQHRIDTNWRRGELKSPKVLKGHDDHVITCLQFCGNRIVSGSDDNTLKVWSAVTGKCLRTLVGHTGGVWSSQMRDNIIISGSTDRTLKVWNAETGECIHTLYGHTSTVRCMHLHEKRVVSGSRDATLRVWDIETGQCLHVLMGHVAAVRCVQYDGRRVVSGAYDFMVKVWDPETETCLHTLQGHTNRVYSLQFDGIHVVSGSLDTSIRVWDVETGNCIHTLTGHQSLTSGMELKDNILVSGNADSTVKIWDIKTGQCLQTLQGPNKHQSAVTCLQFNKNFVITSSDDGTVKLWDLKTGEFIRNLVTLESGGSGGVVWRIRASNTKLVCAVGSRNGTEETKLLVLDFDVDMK

F-BOX and WD domain repeating-containing 7 (FBW7) (from UniProt Q969H0-1 1-707)
binding [1]: binds

Ehrlichia chaffeensis TRP120 effector (from UniProt Q2GI62 1-548)
binding [2]: binds
